Source: publication PMC7819943, “Rice protein-binding microarrays: a tool to detect cis-acting elements near promoter regions in rice”
Some of the results follow.

Each sequence was assayed against T1, OsSMF1 (Oryza sativa, UniProt Q6ZLB0 1-436) (assay: protein-binding microarray (RPBM); PBS, 2% BSA, 51.3 ng/ul salmon testes DNA, 50 uM zinc acetate, 200 nM TF, 25 C, 1 h; high values mean tight binding). Conditions: protein: recombinant; tags: N-terminal polyhistidine and DsRed monomer fusion (pET32a); chain copies: 2; label: CyDye5-dUTP incorporated in the synthesized complementary strand; 3' TTTTT single-stranded linker to array surface; dsDNA, one strand shown.
T1 sequence: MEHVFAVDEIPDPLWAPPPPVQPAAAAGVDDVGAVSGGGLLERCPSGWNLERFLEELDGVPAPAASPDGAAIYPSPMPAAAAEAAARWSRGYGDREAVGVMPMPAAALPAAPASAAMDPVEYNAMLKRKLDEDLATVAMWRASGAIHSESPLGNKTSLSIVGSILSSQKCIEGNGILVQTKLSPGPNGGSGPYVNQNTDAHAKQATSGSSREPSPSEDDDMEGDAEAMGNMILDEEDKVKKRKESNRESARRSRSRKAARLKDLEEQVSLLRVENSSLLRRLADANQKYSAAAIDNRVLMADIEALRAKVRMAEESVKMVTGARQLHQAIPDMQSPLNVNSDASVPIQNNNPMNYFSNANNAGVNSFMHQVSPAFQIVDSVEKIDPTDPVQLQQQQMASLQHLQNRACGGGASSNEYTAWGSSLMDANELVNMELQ
Summary of the method: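 Ni–NTA purification followed expression in E. coli BL21-CodonPlus of transcription factors fused N-terminally to a polyhistidine tag and DsRed. At 200 nM in PBS with 2% BSA, salmon testes DNA and 50 µM zinc acetate, the protein was incubated for 1 h at 25 °C with a custom Agilent array that had been primer-extended with Cy5-dUTP and blocked with 2% BSA. After washing, the array was read on an Axon 4000B scanner. The binding signal is per-feature fluorescence intensity in arbitrary units.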

Sequence	binding signal
ATCATGCTCTATGTGTAGTTGTATACGTGCGTATATATCTCGGAGTCACCTAGTGCAG	3460 fluorescence intensity (a.u.)
TTGTGATGATTCATTTATAAAATAAGGAAGTTTTCTCAATCGGAGTCACCTAGTGCAG	3360 fluorescence intensity (a.u.)
GCCGCCCTCTCCCTCCCGCTGTCCACCTCCACCTCACAGGCGGAGTCACCTAGTGCAG	4300 fluorescence intensity (a.u.)
TGTTCCACGTGGTACCGGTGTGTGTGGCACGGTGGCGCCGCGGAGTCACCTAGTGCAG	8490 fluorescence intensity (a.u.)
GTTAACAGTAAGTTATTCTTTGAACTCCATATATTTGTTCCGGAGTCACCTAGTGCAG	3440 fluorescence intensity (a.u.)
GAGGACACGAGCGCTCCCGGACACGCGTCGCCTCCCCATTCGGAGTCACCTAGTGCAG	3880 fluorescence intensity (a.u.)
TCGGCGCTGTCGGAGGTGGATCTCGCATAGCTCTCGACGGCGGAGTCACCTAGTGCAG	3200 fluorescence intensity (a.u.)
AGCCGTATCCACCCAGTTGTACATGTGTCCTAGTTGAGAGCGGAGTCACCTAGTGCAG	3380 fluorescence intensity (a.u.)
ATTTGCGCTGATATATTATCTAACGTGACACGATTAATCCCGGAGTCACCTAGTGCAG	6030 fluorescence intensity (a.u.)
CGTTCTGCACCGTTGGCATGGTCATGTGCTCGGAGAGGAGCGGAGTCACCTAGTGCAG	3150 fluorescence intensity (a.u.)
GTATACAGTAACAACACGGTATGTAGTATCATTCGCAGTGCGGAGTCACCTAGTGCAG	32500 fluorescence intensity (a.u.)
TGCTTTCCTCCCTTTATTACTACATCATGCGCCTTCGTGACGGAGTCACCTAGTGCAG	3370 fluorescence intensity (a.u.)
AACTCCGGCCTCCCGGCCACCAGTCACACGACTCACGGCACGGAGTCACCTAGTGCAG	26900 fluorescence intensity (a.u.)
CATCCATCCTCCATCCTTCATCCGCCGCGACGAAGAGAAACGGAGTCACCTAGTGCAG	3880 fluorescence intensity (a.u.)
GCTGACCTACACGTTGCTCCTTCTCATGCTCCTTCTATTTCGGAGTCACCTAGTGCAG	3650 fluorescence intensity (a.u.)
CCCCGTCCCGTACACGTCTATCCAAATGGCCACGTTAATCCGGAGTCACCTAGTGCAG	4020 fluorescence intensity (a.u.)
GGCTGGCGTGTACGCTTCTGGTGGTATCCACATCGGCCCGCGGAGTCACCTAGTGCAG	3320 fluorescence intensity (a.u.)
GCCAGAGCCGTCCGTTGTGTTGTGTGTCACCTTTCCGCGCCGGAGTCACCTAGTGCAG	5320 fluorescence intensity (a.u.)
TATGGCCAACTTTGCATTCTATCTGTATTGTATGTTCAGTCGGAGTCACCTAGTGCAG	25000 fluorescence intensity (a.u.)
ATCGGTGGTGGTGGTGGTGGTGGCCATGAGTCTCGTTTGACGGAGTCACCTAGTGCAG	4900 fluorescence intensity (a.u.)
AGTACTTCATTTAACCGAAAATATGAGGCGACCAACGTGACGGAGTCACCTAGTGCAG	28900 fluorescence intensity (a.u.)

No new results follow: entries from further up.
Sequence	binding signal
ATTTGCGCTGATATATTATCTAACGTGACACGATTAATCCCGGAGTCACCTAGTGCAG	6030 fluorescence intensity (a.u.)
CGTTCTGCACCGTTGGCATGGTCATGTGCTCGGAGAGGAGCGGAGTCACCTAGTGCAG	3150 fluorescence intensity (a.u.)
GTATACAGTAACAACACGGTATGTAGTATCATTCGCAGTGCGGAGTCACCTAGTGCAG	32500 fluorescence intensity (a.u.)

Carrying on:

Sequence	binding signal
GTAGTCGTAATGTCATCGTCATCGACATCGATGTGTTGCTCGGAGTCACCTAGTGCAG	4940 fluorescence intensity (a.u.)
ACGGTCAGTCGCACACGTCCGAGGCCTATAAACCTAAACCCGGAGTCACCTAGTGCAG	3890 fluorescence intensity (a.u.)
TTAAATTTGAAACAGTTTGACTTTGACCAGTCAAAGTCTTCGGAGTCACCTAGTGCAG	8060 fluorescence intensity (a.u.)
ACCTCCATCTCCATGGCCCATGGCATCACCGCGTCGGCGCCGGAGTCACCTAGTGCAG	3200 fluorescence intensity (a.u.)
ACTATTTCTCCAGATAGTAGTAGTAACTCTTACGTCATGGCGGAGTCACCTAGTGCAG	4910 fluorescence intensity (a.u.)
GAAAGAAAGAAGGTATTGGCGTGGACACCCTGACATGTGGCGGAGTCACCTAGTGCAG	3740 fluorescence intensity (a.u.)
TTGTGTGTGCACGTGATGTGAGTGTCACGAGGTCAAATCCCGGAGTCACCTAGTGCAG	3700 fluorescence intensity (a.u.)
CCTGTGCGTGGTCGGGTTAATTTGTCAGTCTGTCACTTACCGGAGTCACCTAGTGCAG	3200 fluorescence intensity (a.u.)
CGGCGGCGGCGTCAGCGTCCGCGACGTGCCGGTGGTGCTCCGGAGTCACCTAGTGCAG	3640 fluorescence intensity (a.u.)
ACGAAGATCAGATCAGAAAATATCTTATCAGGTCTCGTCTCGGAGTCACCTAGTGCAG	24100 fluorescence intensity (a.u.)
CCCCTCTCTAGTGACCTCAATCCTAGACGGTGGCATCCGGCGGAGTCACCTAGTGCAG	3920 fluorescence intensity (a.u.)
CCCCGGACTCCCACCTCGACCGCGTGGCCCTCTCCCTCGCCGGAGTCACCTAGTGCAG	4440 fluorescence intensity (a.u.)
TCTTATTTTCTTGGATAATTCAACTGTGACGATGACCTCTCGGAGTCACCTAGTGCAG	3540 fluorescence intensity (a.u.)
CACTTCAGCCTTCAAGCCACACTAGCATTGACAGCGTCAGCGGAGTCACCTAGTGCAG	4350 fluorescence intensity (a.u.)
GCGCAGCTGGCGTGGCAGTGCTGTCCTGCCACGCCATCATCGGAGTCACCTAGTGCAG	16200 fluorescence intensity (a.u.)
TATCTGATGAGAGCAGATTGCCACACATCACAGCATGCAGCGGAGTCACCTAGTGCAG	3640 fluorescence intensity (a.u.)
TAAAGTGAATCACGCCCACGCGTGATCGTCTTGTCACATCCGGAGTCACCTAGTGCAG	5380 fluorescence intensity (a.u.)
ACCCTCTAAAATTCTCGCTCGCCCTCCTCCTTAATCCCGGCGGAGTCACCTAGTGCAG	3910 fluorescence intensity (a.u.)
CTCGCGTCGCGTCCTGCTGACTCCTCTCCTCCTCCGCCAGCGGAGTCACCTAGTGCAG	9610 fluorescence intensity (a.u.)
TTCCTCTTCTCTTCTGACCCAAGAAGAGCGGGCCTGTTTGCGGAGTCACCTAGTGCAG	3540 fluorescence intensity (a.u.)
GATCGCGGGGCGTGTTAATTCAAATGACGTTAGTCCTGAACGGAGTCACCTAGTGCAG	3480 fluorescence intensity (a.u.)

Sequence	binding signal
AACGGAGATAGCTAGCCGTCTCGTCAAAGCTGTGTCATCACGGAGTCACCTAGTGCAG	8540 fluorescence intensity (a.u.)
TACATTTTGGGACGGAGGTAGTATAGCTTAACCGATCATCCGGAGTCACCTAGTGCAG	35000 fluorescence intensity (a.u.)
CATTTGGTGAGGCTTCGGGAGGTCACCAGAATTGTTCCTGCGGAGTCACCTAGTGCAG	3260 fluorescence intensity (a.u.)
TGCAAAAGTAAAATCCAACGTGGCACGCCCCAGCGTGCGACGGAGTCACCTAGTGCAG	10100 fluorescence intensity (a.u.)
TCTGCAGTGCACACGAGTCAGAGTCATGCTCTTGTCTTGCCGGAGTCACCTAGTGCAG	3500 fluorescence intensity (a.u.)
CAGTTTTAAACGGGTTATCTCTTGTAATATGTATACAGCCCGGAGTCACCTAGTGCAG	3240 fluorescence intensity (a.u.)
GGTCTTCATCTCTGCACGAATCGTAAGGTAATCATCAGAGCGGAGTCACCTAGTGCAG	3240 fluorescence intensity (a.u.)
TAACTGGTTCCACCTGTCATACACACACTGTGTCTTAGAGCGGAGTCACCTAGTGCAG	3270 fluorescence intensity (a.u.)
CCTAATTAATCCATGATTAGTCATAAGTGTTACAATAATCCGGAGTCACCTAGTGCAG	25600 fluorescence intensity (a.u.)
GGGGCGGATCTACAGTGTTAGCATCGGTGTCAGATGACACCGGAGTCACCTAGTGCAG	3460 fluorescence intensity (a.u.)
AAGATATATTTTGCAGTCCGTGTCATTGTCCAAAACGTCACGGAGTCACCTAGTGCAG	4260 fluorescence intensity (a.u.)
GTTTAGACGGGTTGGCGAAATCCACACCGTCCGTTAGAGACGGAGTCACCTAGTGCAG	30800 fluorescence intensity (a.u.)
CTCTCAGGATTTCTGTGAGGACCTGAGTCAGAATTGATACCGGAGTCACCTAGTGCAG	3770 fluorescence intensity (a.u.)
CCCCGTGCACCAACGGGCGCAGAGCACACAGACGCGAACTCGGAGTCACCTAGTGCAG	36000 fluorescence intensity (a.u.)
GAATCTGACATGGTTACATTGCGGCACTGCTGTCAATGGACGGAGTCACCTAGTGCAG	3770 fluorescence intensity (a.u.)
ATGCAACTAACCCTTATCAGCATCATGTGCCTTTATCTCTCGGAGTCACCTAGTGCAG	3580 fluorescence intensity (a.u.)
TGAAAGCCATTAAGCATATGTCATGTCAAGTTGATCTATACGGAGTCACCTAGTGCAG	3160 fluorescence intensity (a.u.)
GCTATATTAAACATTTGCTAATGACAAATTAATTAGCTTACGGAGTCACCTAGTGCAG	14700 fluorescence intensity (a.u.)
GCATAATTTGCATAGAAATCGCGAGACGAATCTCTAATTACGGAGTCACCTAGTGCAG	38300 fluorescence intensity (a.u.)
GGGTCACTAGCCCATGAAATGAACTCGAGCACTTGATCAGCGGAGTCACCTAGTGCAG	3310 fluorescence intensity (a.u.)
CTGTCTGCTCAGTTTGGTGGGTTCTGCTCACCAGTCTCCCCGGAGTCACCTAGTGCAG	3420 fluorescence intensity (a.u.)

Some values from the results shown:
binding signal, GCATAATTTGCATAGAAATCGCGAGACGAATCTCTAATTACGGAGTCACCTAGTGCAG is entered as 38300 fluorescence intensity (a.u.)
binding signal, GGGTCACTAGCCCATGAAATGAACTCGAGCACTTGATCAGCGGAGTCACCTAGTGCAG is entered as 3310 fluorescence intensity (a.u.)
binding signal, CCTAATTAATCCATGATTAGTCATAAGTGTTACAATAATCCGGAGTCACCTAGTGCAG is entered as 25600 fluorescence intensity (a.u.)

Further records.

Sequence	binding signal
GGACAGTTTTGGCGTGCCACGTAGTCTTATCTCTAGTGCACGGAGTCACCTAGTGCAG	8670 fluorescence intensity (a.u.)
GCTTGCTTGCTTGCATCCTCCTCACATTCACCACGAGGTTCGGAGTCACCTAGTGCAG	3670 fluorescence intensity (a.u.)
TCGGGTTTTACAATTTTATGACATGGACTCCTACGCCATCCGGAGTCACCTAGTGCAG	6410 fluorescence intensity (a.u.)
CTGACCCGGGGTGGAGTGGAGACGTGGAGTCGTTGGTGTTCGGAGTCACCTAGTGCAG	4130 fluorescence intensity (a.u.)
ACCATAAAATGTTTAGGTGTTTCAACCGTGATTGTCTTCACGGAGTCACCTAGTGCAG	20200 fluorescence intensity (a.u.)
AAATTTCCGTGCGTGACCCGTCATCTGCTAGTACTTGCTGCGGAGTCACCTAGTGCAG	5470 fluorescence intensity (a.u.)
GCGTACGTCGGCATTGCAACGTGTGGCGCCAGTGGCGATCCGGAGTCACCTAGTGCAG	23200 fluorescence intensity (a.u.)
CCCCGGCCCCACCCGTCAGTGACGTGGAGGAATCCCCAAACGGAGTCACCTAGTGCAG	11800 fluorescence intensity (a.u.)
AGCACATGACGTCGGATGAAAATTTCTCGATCTTGTGCGTCGGAGTCACCTAGTGCAG	10400 fluorescence intensity (a.u.)
AATTCTCTCTCTCTACAGTCTAACACACATGCTGACAAAGCGGAGTCACCTAGTGCAG	3770 fluorescence intensity (a.u.)
CCATCTACAGCCGAACTGACGTGCAACCTGGTAGCTCGCACGGAGTCACCTAGTGCAG	5400 fluorescence intensity (a.u.)
GCCTTAGTAATTTTGGTAAACTAATTGTTGATGTCATGTTCGGAGTCACCTAGTGCAG	4350 fluorescence intensity (a.u.)
GGATGTCACCAAGGGGCCGATCAAGATCGAAGTAAGCTAGCGGAGTCACCTAGTGCAG	6300 fluorescence intensity (a.u.)
TAGCTTCGAGATGATGATGTGGTGGCCTATCTGATCCGCCCGGAGTCACCTAGTGCAG	4840 fluorescence intensity (a.u.)
CTACGTTCTACAGACGATCGATGGCTTCTGTCACTCTTCTCGGAGTCACCTAGTGCAG	23900 fluorescence intensity (a.u.)
AGAGAGCAACACGTGCGTGGACAAGTAGTGTACTGTAGCGCGGAGTCACCTAGTGCAG	6000 fluorescence intensity (a.u.)
ACCTTCATTGGATCTGCCTCCCTGCAAGCCTCTGCCTCAACGGAGTCACCTAGTGCAG	43300 fluorescence intensity (a.u.)
TTTAAATTTGGATGAACCCATCGAAATTTCAGACATCTACCGGAGTCACCTAGTGCAG	23900 fluorescence intensity (a.u.)
TACACTCTTAGGTTCTGTATGCCTATTTTGGATCTTTCACCGGAGTCACCTAGTGCAG	15000 fluorescence intensity (a.u.)
GCTCCTCGCGCTGCTCATCATCCTCCCCTCCACGCCGCCGCGGAGTCACCTAGTGCAG	4730 fluorescence intensity (a.u.)
GCGTCTCCCGCCGCGGTGACCTCACCTCTCTTCCTCGCCGCGGAGTCACCTAGTGCAG	3620 fluorescence intensity (a.u.)
